Results reported in the M2OR odorant receptor database.
Positions count from the first letter of the chain named. This is one part of the list. The calls were merged from several studies; some rest on single wells.

Chains of the proteins cited; added tags and fusions are not shown. Chains listed by the source or under a name are the forms on record and can include a tag or linker.
O11H2, as listed by the source: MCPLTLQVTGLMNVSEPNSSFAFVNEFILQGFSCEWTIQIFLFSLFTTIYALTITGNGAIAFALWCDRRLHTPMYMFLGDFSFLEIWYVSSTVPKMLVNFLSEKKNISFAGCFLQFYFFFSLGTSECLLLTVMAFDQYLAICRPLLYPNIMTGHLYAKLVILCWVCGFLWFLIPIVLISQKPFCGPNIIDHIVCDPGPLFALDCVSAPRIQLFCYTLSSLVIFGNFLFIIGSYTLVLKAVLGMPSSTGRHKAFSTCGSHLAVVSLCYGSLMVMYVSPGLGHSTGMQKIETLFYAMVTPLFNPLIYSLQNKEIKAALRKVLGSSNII

System: T1, O10R2
T1 sequence (whole entry): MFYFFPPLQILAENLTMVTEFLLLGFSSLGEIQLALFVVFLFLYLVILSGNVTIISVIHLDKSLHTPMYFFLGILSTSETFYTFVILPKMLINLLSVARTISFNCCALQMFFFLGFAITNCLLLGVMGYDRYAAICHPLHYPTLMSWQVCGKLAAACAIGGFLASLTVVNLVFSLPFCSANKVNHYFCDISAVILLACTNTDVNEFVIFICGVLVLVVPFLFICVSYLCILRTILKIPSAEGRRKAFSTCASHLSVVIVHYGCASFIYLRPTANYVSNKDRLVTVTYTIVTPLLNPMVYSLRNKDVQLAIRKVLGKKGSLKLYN
Settings: stereoisomer not certain
Outline: (§1)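 Each receptor–molecule pair is labelled responsive or non-responsive (inactive) according to whether the original authors judged the measured signal statistically different from baseline. The data were taken from the main text and supplementary material of published papers and checked for typos and inconsistencies. Assay methods differed by source, with transient luciferase assays in mammalian cell lines being common.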
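Note: active if original authors judged signal statistically different from baseline.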

Row | SMILES | odorant receptor agonist call
1 | CCC(C)=O | inactive
2 | CCCCOC(C)=O | inactive
3 | CS | inactive

System: T2, O10R2
T2 sequence (whole entry): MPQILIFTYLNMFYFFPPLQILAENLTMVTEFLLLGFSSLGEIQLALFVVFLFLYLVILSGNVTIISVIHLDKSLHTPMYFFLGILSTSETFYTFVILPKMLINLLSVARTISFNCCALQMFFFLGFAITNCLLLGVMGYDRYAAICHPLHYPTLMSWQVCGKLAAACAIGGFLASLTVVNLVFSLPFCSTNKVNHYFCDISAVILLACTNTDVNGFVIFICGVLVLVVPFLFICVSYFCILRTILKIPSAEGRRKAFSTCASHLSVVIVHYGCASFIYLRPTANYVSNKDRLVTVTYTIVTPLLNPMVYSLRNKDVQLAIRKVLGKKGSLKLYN
Settings: stereoisomer not certain
Outline: as §1

Row | SMILES | odorant receptor agonist call
4 | CCC(C)=O | inactive
5 | CCCCOC(C)=O | inactive
6 | CS | inactive

System: T3, O10V1
T3 sequence (whole entry): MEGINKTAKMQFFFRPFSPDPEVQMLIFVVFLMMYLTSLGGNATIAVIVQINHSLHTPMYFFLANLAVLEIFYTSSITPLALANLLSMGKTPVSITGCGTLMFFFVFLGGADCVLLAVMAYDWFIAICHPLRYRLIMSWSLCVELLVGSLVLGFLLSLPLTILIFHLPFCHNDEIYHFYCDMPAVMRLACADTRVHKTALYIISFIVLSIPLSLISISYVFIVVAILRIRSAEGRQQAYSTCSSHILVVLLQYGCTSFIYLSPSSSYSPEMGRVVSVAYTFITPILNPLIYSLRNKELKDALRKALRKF
Settings: stereoisomer not certain
Outline: as §1

Row | SMILES | odorant receptor agonist call
7 | CCC(C)=O | inactive
8 | CCCCOC(C)=O | inactive
9 | CS | inactive

System: T4, O10W1
T4 sequence (whole entry): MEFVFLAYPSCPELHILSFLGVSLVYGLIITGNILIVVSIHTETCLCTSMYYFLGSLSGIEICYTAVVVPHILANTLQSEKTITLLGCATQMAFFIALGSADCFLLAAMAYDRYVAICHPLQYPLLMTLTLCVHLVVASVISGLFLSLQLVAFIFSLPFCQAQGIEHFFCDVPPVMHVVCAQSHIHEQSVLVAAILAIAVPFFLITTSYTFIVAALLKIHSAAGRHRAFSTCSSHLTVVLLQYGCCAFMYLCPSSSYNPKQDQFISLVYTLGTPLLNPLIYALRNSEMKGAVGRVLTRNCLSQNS
Settings: stereoisomer not certain
Outline: as §1

Row | SMILES | odorant receptor agonist call
10 | CCC(C)=O | inactive
11 | CCCCOC(C)=O | inactive
12 | CS | inactive

System: T5, O10X1
T5 sequence (whole entry): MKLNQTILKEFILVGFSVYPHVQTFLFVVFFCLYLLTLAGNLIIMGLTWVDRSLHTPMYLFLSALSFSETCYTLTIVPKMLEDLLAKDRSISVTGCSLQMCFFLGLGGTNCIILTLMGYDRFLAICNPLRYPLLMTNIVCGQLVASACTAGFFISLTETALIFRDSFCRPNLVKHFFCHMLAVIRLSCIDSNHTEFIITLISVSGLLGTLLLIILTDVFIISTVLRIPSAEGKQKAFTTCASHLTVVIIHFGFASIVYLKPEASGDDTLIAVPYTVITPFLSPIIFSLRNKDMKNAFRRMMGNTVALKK
Settings: stereoisomer not certain
Outline: as §1

Row | SMILES | odorant receptor agonist call
13 | CCC(C)=O | inactive
14 | CCCCOC(C)=O | inactive
15 | CS | inactive

System: T6, O11G2
T6 sequence (whole entry): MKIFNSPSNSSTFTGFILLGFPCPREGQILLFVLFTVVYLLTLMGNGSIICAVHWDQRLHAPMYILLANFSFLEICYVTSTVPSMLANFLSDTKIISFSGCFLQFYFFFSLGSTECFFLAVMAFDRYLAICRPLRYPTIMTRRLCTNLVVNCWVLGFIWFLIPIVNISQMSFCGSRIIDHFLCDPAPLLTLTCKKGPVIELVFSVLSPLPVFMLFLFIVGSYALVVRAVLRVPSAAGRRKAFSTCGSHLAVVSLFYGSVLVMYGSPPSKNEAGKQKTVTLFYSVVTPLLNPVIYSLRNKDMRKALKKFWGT
Settings: stereoisomer not certain
Outline: as §1

Row | SMILES | odorant receptor agonist call
16 | CCC(C)=O | inactive
17 | CCCCOC(C)=O | inactive
18 | CS | active

System: T7, O11H1
T7 sequence (whole entry): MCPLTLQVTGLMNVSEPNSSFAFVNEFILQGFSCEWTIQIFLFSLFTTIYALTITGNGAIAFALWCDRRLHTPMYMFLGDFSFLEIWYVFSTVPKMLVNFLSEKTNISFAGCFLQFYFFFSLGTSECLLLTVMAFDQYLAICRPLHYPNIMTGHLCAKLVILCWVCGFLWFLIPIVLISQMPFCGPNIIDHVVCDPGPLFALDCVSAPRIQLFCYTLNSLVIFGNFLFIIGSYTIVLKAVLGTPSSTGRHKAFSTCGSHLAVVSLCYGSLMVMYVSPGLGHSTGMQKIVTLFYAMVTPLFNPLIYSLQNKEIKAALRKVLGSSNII
Settings: stereoisomer not certain
Outline: as §1

Row | SMILES | odorant receptor agonist call
19 | CCC(C)=O | inactive
20 | CCCCOC(C)=O | inactive
21 | CS | inactive

System: T8, O11H1
T8 sequence (whole entry): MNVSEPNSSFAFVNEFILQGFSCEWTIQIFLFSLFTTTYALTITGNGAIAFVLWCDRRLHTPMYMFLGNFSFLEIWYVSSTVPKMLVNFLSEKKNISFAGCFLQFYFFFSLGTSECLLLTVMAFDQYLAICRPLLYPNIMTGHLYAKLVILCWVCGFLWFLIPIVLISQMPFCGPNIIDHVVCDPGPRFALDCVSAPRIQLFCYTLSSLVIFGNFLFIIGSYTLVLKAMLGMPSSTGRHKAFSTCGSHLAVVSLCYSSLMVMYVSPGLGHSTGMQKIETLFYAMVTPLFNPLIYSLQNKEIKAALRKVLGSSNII
Settings: stereoisomer not certain
Outline: as §1

Row | SMILES | odorant receptor agonist call
22 | CCC(C)=O | inactive
23 | CCCCOC(C)=O | inactive
24 | CS | inactive

System: T9, O11H2
T9 sequence (whole entry): T7 sequence (whole entry) with F90S, T105K, H146L, C156Y, M181K, V192I, N218S, I235L, T243M, V289E
Settings: stereoisomer not certain
Outline: as §1

Row | SMILES | odorant receptor agonist call
25 | CCC(C)=O | inactive
26 | CCCCOC(C)=O | inactive
27 | CS | inactive

System: T10, O11H4
T10 sequence (whole entry): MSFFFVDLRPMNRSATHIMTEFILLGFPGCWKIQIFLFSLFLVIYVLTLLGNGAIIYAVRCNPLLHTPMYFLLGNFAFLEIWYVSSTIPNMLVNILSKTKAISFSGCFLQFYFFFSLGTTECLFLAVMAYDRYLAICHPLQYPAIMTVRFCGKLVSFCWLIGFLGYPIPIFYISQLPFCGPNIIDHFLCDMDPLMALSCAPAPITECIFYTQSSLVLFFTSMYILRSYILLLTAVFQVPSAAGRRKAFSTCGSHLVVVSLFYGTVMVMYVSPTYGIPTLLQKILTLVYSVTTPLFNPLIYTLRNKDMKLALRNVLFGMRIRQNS
Settings: stereoisomer not certain
Outline: as §1

Row | SMILES | odorant receptor agonist call
28 | CCC(C)=O | inactive
29 | CCCCOC(C)=O | inactive
30 | CS | inactive
